# Data as given in PubChem BioAssay AID1117269 (University of Michigan, 2014)
# Screen: 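Which kinase knockdowns increase BTR reporter light after TGF-beta stimulation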 (primary screen)
# System: human A549 lung cancer and 1833 breast cancer (MDA-MB-231-derived) cell lines carrying a stable BTR luciferase reporter
# Reagents: siRNA pool against human genes
# Duration: 72 h after transfection, then 1 h TGF-beta before the read
# Challenge: TGF-beta 10 ng/mL added one hour before luciferin and read-out
# Measurement: 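BTR reporter bioluminescence as fold change relative to non-targeting siRNA, averaging triplicates per line; knockdown for 72 h, then TGF-beta at 10 ng/mL 1 h prior to reading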
# Reading the numbers: fold over scrambled siRNA, A549 and fold over scrambled siRNA, 1833: higher = more reporter light, weaker TGF-beta receptor signalling
# Active means: 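Hit in either line counts as active; per-line hits lie above an upper limit from quartiles of averaged log fold values, in plate and screen-wide analyses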
# Meaning of the calls: active = hit in at least one line; inactive = hit in neither line
# Shown is one part, drawn at random, of 714 deposited reagents. 49 of all reagents (6.9%) count as active. 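Active means a hit in at least one line; per-line hit columns show which; some siRNA pools appear more than once.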 Reagent sequences are not shown. Not given: the amount of reagent.
target,"fold over scrambled siRNA, A549","fold over scrambled siRNA, 1833",hit in A549,hit in 1833,outcome
GRK4,1.94,2.99,not a hit in A549,not a hit in 1833,inactive
SIK1,4.41,2.33,not a hit in A549,not a hit in 1833,inactive
PRKCZ,0.86,4,not a hit in A549,not a hit in 1833,inactive
HK1,3.38,5.79,not a hit in A549,not a hit in 1833,inactive
CAMK2B,3.81,6.62,not a hit in A549,not a hit in 1833,inactive
CDK13,2.1,10.3,not a hit in A549,hit in 1833,
DGKH,1.19,2.67,not a hit in A549,not a hit in 1833,inactive
EPHB4,12.9,7.29,hit in A549,not a hit in 1833,active
PKLR,5.39,1.3,hit in A549,not a hit in 1833,
VRK1,2.66,0.852,not a hit in A549,not a hit in 1833,inactive
RELA,1.75,1.62,not a hit in A549,not a hit in 1833,inactive
TGFBR2,0.793,1.59,not a hit in A549,not a hit in 1833,inactive
TSSK4,1.96,2.52,not a hit in A549,not a hit in 1833,inactive
ALK,1.76,11.9,not a hit in A549,hit in 1833,

2 entries already listed, ordered by “fold over scrambled siRNA, 1833”, low to high.
target,"fold over scrambled siRNA, A549","fold over scrambled siRNA, 1833",hit in A549,hit in 1833,outcome
VRK1,2.66,0.852,not a hit in A549,not a hit in 1833,inactive
RELA,1.75,1.62,not a hit in A549,not a hit in 1833,inactive

The results go on.
target,"fold over scrambled siRNA, A549","fold over scrambled siRNA, 1833",hit in A549,hit in 1833,outcome
CILK1,1.5,3.88,not a hit in A549,not a hit in 1833,inactive
HIPK3,1.76,0.857,not a hit in A549,not a hit in 1833,inactive
PDK3,1.44,2.27,not a hit in A549,not a hit in 1833,inactive
TRIB1,1.71,2.9,not a hit in A549,not a hit in 1833,inactive
WNK3,1.51,4.27,not a hit in A549,not a hit in 1833,inactive
RYK,1.83,2.47,not a hit in A549,not a hit in 1833,inactive
RPS6KA4,1.06,0.667,not a hit in A549,not a hit in 1833,inactive
NEK9,1.94,0.81,not a hit in A549,not a hit in 1833,inactive
CDC7,3.4,3.27,not a hit in A549,not a hit in 1833,inactive
